These are yes or no findings as the source states them, for the method shown. Some results given as binding are weak or reduced against the parent protein; the word gives no strength. For some assays here: Tags and fused reporters may be left off the sequences shown.

Protein sequences, listed by entry. Tags and fused reporters are not part of them.
UniProt P87112: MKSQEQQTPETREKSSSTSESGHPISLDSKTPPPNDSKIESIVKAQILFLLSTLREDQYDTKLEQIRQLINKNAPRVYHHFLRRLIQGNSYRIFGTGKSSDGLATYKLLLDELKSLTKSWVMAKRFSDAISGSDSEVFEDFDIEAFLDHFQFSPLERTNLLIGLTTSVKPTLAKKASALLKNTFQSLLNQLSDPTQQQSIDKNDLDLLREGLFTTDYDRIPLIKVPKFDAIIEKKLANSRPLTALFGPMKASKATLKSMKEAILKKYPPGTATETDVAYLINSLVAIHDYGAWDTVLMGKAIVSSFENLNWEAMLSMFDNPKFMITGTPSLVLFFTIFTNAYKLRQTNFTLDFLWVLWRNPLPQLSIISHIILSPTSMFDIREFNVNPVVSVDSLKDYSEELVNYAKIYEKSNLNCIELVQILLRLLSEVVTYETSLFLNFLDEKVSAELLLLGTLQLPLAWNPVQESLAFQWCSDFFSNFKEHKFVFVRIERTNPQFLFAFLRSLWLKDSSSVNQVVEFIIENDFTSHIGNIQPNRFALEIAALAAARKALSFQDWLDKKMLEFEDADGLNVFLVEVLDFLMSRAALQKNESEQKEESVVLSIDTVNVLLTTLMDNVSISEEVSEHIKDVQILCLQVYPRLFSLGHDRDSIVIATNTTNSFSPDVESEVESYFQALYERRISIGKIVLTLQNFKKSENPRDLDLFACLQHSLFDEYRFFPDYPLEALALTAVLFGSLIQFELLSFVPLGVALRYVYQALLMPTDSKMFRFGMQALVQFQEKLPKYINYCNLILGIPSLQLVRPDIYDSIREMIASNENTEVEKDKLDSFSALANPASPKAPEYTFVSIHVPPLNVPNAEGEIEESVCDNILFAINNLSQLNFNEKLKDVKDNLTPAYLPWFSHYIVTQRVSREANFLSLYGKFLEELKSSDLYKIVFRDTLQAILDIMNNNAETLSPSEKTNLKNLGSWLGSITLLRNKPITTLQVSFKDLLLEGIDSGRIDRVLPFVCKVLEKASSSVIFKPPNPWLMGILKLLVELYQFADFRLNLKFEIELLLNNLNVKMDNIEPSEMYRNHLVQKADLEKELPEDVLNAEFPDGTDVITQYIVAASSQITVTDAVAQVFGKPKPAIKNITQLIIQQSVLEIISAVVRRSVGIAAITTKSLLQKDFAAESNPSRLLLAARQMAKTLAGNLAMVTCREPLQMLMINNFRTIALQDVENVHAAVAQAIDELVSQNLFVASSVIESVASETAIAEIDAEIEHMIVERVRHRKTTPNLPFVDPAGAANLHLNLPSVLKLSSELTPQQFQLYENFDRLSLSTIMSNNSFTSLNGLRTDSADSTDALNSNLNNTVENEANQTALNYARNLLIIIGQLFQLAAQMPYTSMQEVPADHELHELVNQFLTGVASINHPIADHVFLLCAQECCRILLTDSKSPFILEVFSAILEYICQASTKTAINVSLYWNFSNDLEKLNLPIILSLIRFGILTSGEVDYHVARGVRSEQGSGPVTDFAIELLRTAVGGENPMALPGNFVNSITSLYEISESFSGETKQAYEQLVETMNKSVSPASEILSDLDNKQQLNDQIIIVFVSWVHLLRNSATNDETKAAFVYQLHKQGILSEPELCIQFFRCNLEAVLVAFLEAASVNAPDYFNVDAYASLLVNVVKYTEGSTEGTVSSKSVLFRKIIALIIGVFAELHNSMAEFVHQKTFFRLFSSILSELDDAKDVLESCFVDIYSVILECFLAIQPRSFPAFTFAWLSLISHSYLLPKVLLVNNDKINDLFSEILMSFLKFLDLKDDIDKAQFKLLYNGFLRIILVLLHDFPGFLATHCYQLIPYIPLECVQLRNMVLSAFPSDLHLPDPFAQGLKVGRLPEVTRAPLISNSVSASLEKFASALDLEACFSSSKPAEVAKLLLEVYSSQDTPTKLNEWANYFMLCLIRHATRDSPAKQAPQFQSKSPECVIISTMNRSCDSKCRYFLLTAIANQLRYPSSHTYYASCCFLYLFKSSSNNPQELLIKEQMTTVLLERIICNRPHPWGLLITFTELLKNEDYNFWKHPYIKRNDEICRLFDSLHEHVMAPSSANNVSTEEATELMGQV

The target in test [1] is T1, Caf1 (StrepII-tagged, recombinant, S. pombe) (S. pombe) (UniProt O74856).
T1 sequence: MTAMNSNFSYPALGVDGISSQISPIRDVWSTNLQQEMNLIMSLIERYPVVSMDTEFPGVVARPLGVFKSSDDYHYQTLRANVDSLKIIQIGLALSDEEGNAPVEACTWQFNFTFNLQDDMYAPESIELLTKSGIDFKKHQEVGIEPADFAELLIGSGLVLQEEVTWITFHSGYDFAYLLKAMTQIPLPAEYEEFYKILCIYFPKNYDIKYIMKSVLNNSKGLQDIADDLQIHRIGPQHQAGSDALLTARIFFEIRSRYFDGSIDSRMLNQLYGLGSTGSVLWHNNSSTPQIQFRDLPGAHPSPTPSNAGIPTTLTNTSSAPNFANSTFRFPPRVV
As to the kind of experiment: SEC-MALS; purified recombinant Ccr4-Not complex (co-expressed in Sf9); monodisperse; both purified.

Test [2] deals with T1, Caf1 (StrepII-tagged, recombinant, S. pombe) (S. pombe). Nature of the test: co-purification (Strep-Tactin affinity, anion exchange, size exclusion chromatography); subunits co-expressed from a single baculovirus in Sf9 cells; captured by the StrepII tag on Caf1; HEPES pH 8.0, 150 mM NaCl, 2 mM Mg(OAc)2; SDS-PAGE of the purified complex. Background: Size exclusion chromatography separates by hydrodynamic size, large species first.

Test [3] deals with T2, Caf1 of the recombinant Caf1-Ccr4 nuclease module (UniProt O74856).
T2 sequence: T1 sequence
Nature of the test: SEC; purified recombinant Caf1-Ccr4 heterodimeric complex; both purified.

Regarding “Not1 (recombinant, S. pombe) (from UniProt P87112 1-2100)”, the binding result in test [1] and in test [2] was “binds” throughout.

B1: Not2 (recombinant, S. pombe) (protein, UniProt P87240 1-306)
chain: MSLANRLSHLNITGGNDFKASIGPSVGRQNEATNPWSSTSHSLENSAATVVNELQTTKEQKTPEQSTTANPLFPGNDFSDFNNHKSKLLGVITGKSTPSSQAEKSDTTNSKTGSTEELTETPADENAKQYMLESLLPIIRMEDSEMSTLQLGCDLAALGFDLAPVEEDRLISTNLFSPWAELNTKKPVSQPMFKLPACYKNVNPPPAISKIFQFSDETLFYIFYTMPRDVMQEAAAQELTNRNWRFHKELRVWLTPVPGMKPLQRTPQFERGYYMFFDPIHWKRIKKDFLLMYAALEDRAQSAVHS
With B1, the binding entry in test [1] and in test [2] was “binds” throughout.

B2: Rcd1 (recombinant, S. pombe) (protein, UniProt Q92368 1-283)
chain: MENLESPNYEPALVYEWIIQLVSGTSREQALVELSRKREQYEDLALILWHSYGVMTALLQEIISVYPLLNPPTLTGPTSNRVCNALALLQCIASHPETRIHFLNAHITLFLYPFLNTLSKSKPFEYLRLTSLGVIGALVKNDSPEVINFLLSTEIIPLCLRIMENGSELSKTVAIFIVQKFLCDDVGLQYICQTYERFYAVASVLNNMVMQLVDSFAFRLLKHVIRCYLRLSDNPRAREALRHCLPEPLRDATFAQVLKDDHNTKKCLAQLLINLSDVAVVNQ
In the case of B2, the binding entry in test [1] and in test [2] was “binds” in each case.

B3: Ccr4 (recombinant, S. pombe) (enzyme, UniProt O74874 1-690)
chain: MFNPRYTQGTIYPGAHPGLLTPDHQHAAILSVQNSPALENSNISEHWKQQIALATQSRSFSSPHQRAHNAAALARSGGPGFSMNYNARTGAFTGGPNAAGLSSLGGKYNTSSTTTTLTTSTTLNTSSGTTLNSTSKTTTSSVAVDDQKSKSDSKKERRDWTCLDLGGIGLRNVSTDLFKFSFLTELYINHNNLTRLPPEIGKLKNLVILDASGNSIKTIPPELGLLTELREVLLFDNMISVIPAELGTLFQLKILGIEGNPLQDVYKNQIMESGTAGLIAALRDGCPVGPPPPERGWEKLVSDDDDDVNDNVSTSVRDLTAADSNKPSTTSKNLKFTIMSYNVLCERYATSTLYGYTPSWALSWSYRKDLIMQELGGYNADIICLQEVDVENYDTFFAPQMSLKGYKGVHFPKSRVRTMNEVERRIVDGCATFFKTSKYVMHEKMVIEYNQAPSLRRQDIKLTSNMYNRVMTKDNISVITLLENKENGSRLIVANCHIHWDPQFRDVKVIQVAMLMDEIAQVATKFRNMPSKIPSDQLKDERPTYPEYLKIPILICGDFNSVQGSGVYDFLSSGSISQNHEDFMNNDYGEYTVNGRSHAFNLKSAYGESEALSFTNYTPGFKGAIDHIWYTGNSLEVTGLLKGVDKDYLSGVVGFPNAHFPSDHICLLAEFKVKQEKTPLPSSKFNNDKK
B3: the binding result in test [1] and in test [2] was “binds” in each case.

B4: Ccr4 of the recombinant Caf1-Ccr4 nuclease module (enzyme, UniProt O74874 1-690)
chain: B3 chain
As to B4, in test [3], the binding result was “binds”.

B5: Not3 (recombinant, S. pombe) (protein, UniProt O13870 1-640)
chain: MSARKLQVEIEKTFKKVTDGIAIFDEVYEKLSASNSVSQKEKLEGDLKTQIKKLQRLRDQIKTWASSNDIKDKKALLENRRLIEAKMEEFKAVEREMKIKAFSKEGLSIASKLDPKEKEKQDTIQWISNAVEELERQAELIEAEAESLKATFKRGKKDLSKLSHLSELESRIERHKWHQDKLELIMRRLENSQISPEAVNDIQEDIMYYVECSQSEDFAEDENLYDELNLDEASASYDAERSGRSSSSSHSPSPSASSSSSSENLLQDKAEAEEKVSADASVQDIAEKESLDADKELATNDQEDDEEENQAETQKDGAISNNENMQSEVQTTNPSASTSAVTNITKPTLIQNPSTPLSVSNSKVASPETPNATHTAPKVEMRYASAAAAAAAALAKESPSHHYIMQQVRPETPNSPRLNSTVIQSKWDSLGHTASPKMQTQPVRSVSQSSATTETNVKPTKEENADVPVSSPDYLKDLVNALNTSKEQHKGAIDKEKLTEALNISCVYVPDATDAAKPQYYIPKDPYPVPHYYPQQPLPLFDSSEMTELVDPDTLFYMFYYRPGTYQQYIAGQELKKQSWRFHKKYTTWFQRHEEPKMITDEFESGSYRYFDFEGDWVQRKKADFRFTYQYLEDDDDWTR
Take B5: the binding result in test [1] and in test [2] was “binds” throughout.

The values are drawn from publication PMC5120349, “Reconstitution of Targeted Deadenylation by the Ccr4-Not Complex and the YTH Domain Protein Mmi1”.
